Record: PubChem BioAssay AID1671195 (Yale University, 2021)

- Screen: 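Knockdowns that increase or decrease uptake of fluorescent LDL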 (primary screen)
- Cells: human Huh7 hepatoma cells
- Knock-down reagent: siRNA pool against human genes, 18 nM
- Time to read-out: about 2 to 2.5 days of knockdown, then 8 h LDL uptake
- Conditions: DiI-labelled LDL at 30 µg/ml for 8 h, in lipoprotein-deficient serum medium
- Detection: 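Fluorescent LDL signal imaged in cells, scaled to the plate median, robust z-score for each replicate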
- Direction: robust z-score: higher = more LDL uptake after knockdown
- Call rule: 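Active when two or more replicates show a robust z-score above 2 or below -2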
Shown is one part, drawn at random, of about 22,000 reagents tested. Of all reagents, about 1,510 (6.9%) were called active. 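Active includes knockdowns raising or lowering LDL uptake; positive z-scores mean more uptake, negative mean less.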

Depletion of LOC401057 (retired record) resulted in: robust z-score, replicate 1 = -0.314; robust z-score, replicate 2 = -0.373; robust z-score, replicate 3 = 0.118; inactive.
For RRAS (RAS related), the values are robust z-score, replicate 1 = 0.48; robust z-score, replicate 2 = -0.804; robust z-score, replicate 3 = 0.141; inactive.
For CCNA1 (cyclin A1), the values are robust z-score, replicate 1 = 0.113; robust z-score, replicate 2 = 1.34; robust z-score, replicate 3 = 0.406; inactive.
C10orf71 (chromosome 10 open reading frame 71) scored robust z-score, replicate 1 = -0.24; robust z-score, replicate 2 = 0.305; robust z-score, replicate 3 = -0.0681; inactive.
For OR1G1 (olfactory receptor family 1 subfamily G member 1), the entry reads robust z-score, replicate 1 = -0.313; robust z-score, replicate 2 = 0.0633; robust z-score, replicate 3 = -0.796; inactive.
With knock-down of TRGV3 (T cell receptor gamma variable 3), the screen gave robust z-score, replicate 1 = -1.4; robust z-score, replicate 2 = -0.7; robust z-score, replicate 3 = -1.05; inactive.
Depletion of LOC387864 (retired record) came out at: robust z-score, replicate 1 = -1.11; robust z-score, replicate 2 = -1.58; robust z-score, replicate 3 = -1.19; inactive.

Copied from the list:
TRGV3 (T cell receptor gamma variable 3), robust z-score, replicate 3 = -1.05
Result for OR1G1 (olfactory receptor family 1 subfamily G member 1) under “robust z-score, replicate 2”: 0.0633

Next reagents follow.
MATN2 (matrilin 2) scored robust z-score, replicate 1 = 2.03; robust z-score, replicate 2 = 1.55; robust z-score, replicate 3 = 1.54; inactive.
TBX2 (T-box transcription factor 2) scored robust z-score, replicate 1 = -1.55; robust z-score, replicate 2 = -1.22; robust z-score, replicate 3 = -1.1; inactive.
Silencing of LEAP2 (liver enriched antimicrobial peptide 2) came out at: robust z-score, replicate 1 = -0.955; robust z-score, replicate 2 = 0.657; robust z-score, replicate 3 = 0.627; inactive.
Knock-down of SPSB2 (splA/ryanodine receptor domain and SOCS box containing 2) came out at: robust z-score, replicate 1 = 0.224; robust z-score, replicate 2 = 1.02; robust z-score, replicate 3 = 0.753; inactive.
SDCBP2 (syndecan binding protein 2) gave robust z-score, replicate 1 = -0.802; robust z-score, replicate 2 = -0.154; robust z-score, replicate 3 = 0.99; inactive.
For TSEN15 (tRNA splicing endonuclease subunit 15) the deposit lists robust z-score, replicate 1 = 0.306; robust z-score, replicate 2 = -0.1; robust z-score, replicate 3 = -1.24; inactive.
Silencing of FLJ31945 (retired record) resulted in: robust z-score, replicate 1 = -1.34; robust z-score, replicate 2 = -1.48; robust z-score, replicate 3 = -1.24; inactive.
TAFA3 (TAFA chemokine like family member 3) gave robust z-score, replicate 1 = -0.734; robust z-score, replicate 2 = -0.852; robust z-score, replicate 3 = -0.743; inactive.
Silencing of LAMTOR3 (late endosomal/lysosomal adaptor, MAPK and MTOR activator 3) resulted in: robust z-score, replicate 1 = 3.71; robust z-score, replicate 2 = 1.57; robust z-score, replicate 3 = 2.21; active.
